Some of these results come from one statement about several compounds together.
test system: T1, at least one of PPARα, PPARγ and PPARδ; test: PPAR activity assays: biochemical assay of Example 22 or cell based assay of Example 23, result pooled; parameters: species or system human; details: either biochemical assay of Example 22 or cell based assay of Example 23; isoform not specified
T1 construct: P332. pET28 PPARA E199-Y468-X / P333. pET28 PPARG E205-Y475-X / P1057. pET BAM6 PPARD G165-Y441-X; fused on or other part: N-terminal His tag on the LBD in the biochemical assay

EC50, ≤ 1000 nM:
Cc1nc(-c2ccc(C(F)(F)F)cc2)oc1S(=O)(=O)c1cccc(CC(=O)O)c1 [Compound P-0284, {3-[4-Methyl-2-(4-trifluoromethyl-phenyl)-oxazole-5-sulfonyl]-phenyl}-acetic acid]
CCCOc1cc(CC(=O)O)cc(S(=O)(=O)c2ccc(Oc3ccc(OC)c(OC)c3)cc2)c1 [Compound P-0118, {3-[4-(3,4-Dimethoxy-phenoxy)-benzenesulfonyl]-5-propoxy-phenyl}-acetic acid]
COCCOc1cc(CC(=O)O)cc(S(=O)(=O)c2cccc(-c3ccccc3OC)c2)c1 [Compound P-0195, [3-(2′-Methoxy-biphenyl-3-sulfonyl)-5-(2-methoxy-ethoxy)-phenyl]-acetic acid]
CCOc1cc(CC(=O)O)cc(S(=O)(=O)c2ccc(Oc3ccc(OC(C)(C)C)cc3)cc2)c1 [Compound P-0274, {3-[4-(4-tert-Butoxy-phenoxy)-benzenesulfonyl]-5-ethoxy-phenyl}-acetic acid]
CCCOc1cc(CC(=O)O)cc(S(=O)(=O)c2cccc(-c3ccc(C(F)(F)F)cc3)c2)c1 [Compound P-0187, [3-Propoxy-5-(4′-trifluoromethyl-biphenyl-3-sulfonyl)-phenyl]-acetic acid]
O=C(O)Cc1cccc(S(=O)(=O)c2cnn(-c3ccc(C(F)(F)F)cc3)c2)c1 [Compound P-0287, {3-[1-(4-trifluoromethyl-phenyl)-1H-pyrazole-4-sulfonyl]-phenyl}-acetic acid]
O=C(O)Cc1cc(OCC2CC2)cc(Oc2cccc(-c3ccc(OC(F)(F)F)cc3)c2)c1 [Compound P-0167, [3-Cyclopropylmethoxy-5-(4′-trifluoromethoxy-biphenyl-3-yloxy)-phenyl]-acetic acid]
CCCOc1cc(CC(=O)O)cc(S(=O)(=O)c2ccc(Oc3ccc(C(F)(F)F)cc3)cc2)c1 [Compound P-0067, {3-Propoxy-5-[4-(4-trifluoromethyl-phenoxy)-benzenesulfonyl]-phenyl}-acetic acid]
CCOc1cc(CC(=O)O)cc(S(=O)(=O)c2ccc(Oc3ccc(OC(F)(F)F)cc3)cc2)c1 [Compound P-0062, {3-Ethoxy-5-[4-(4-trifluoromethoxy-phenoxy)-benzenesulfonyl]-phenyl}-acetic acid]
CCOc1cc(CC(=O)O)cc(Oc2cccc(-c3cccc(C(F)(F)F)c3)c2)c1 [Compound P-0104, [3-Ethoxy-5-(3′-trifluoromethyl-biphenyl-3-yloxy)-phenyl]-acetic acid]
CCCCOc1cc(OCCCOc2ccc(C(C)=O)c(O)c2CCC)cc(C(C)(C)C(=O)O)c1 [Compound P-0002, 2-{3-[3-(4-acetyl-3-hydroxy-2-propyl-phenoxy)-propoxy]-5-butoxy-phenyl}-2-methyl-propionic acid]
COc1cc(CC(=O)O)cc(S(=O)(=O)c2ccc(Oc3ccc(OC(F)(F)F)cc3)cc2)c1 [Compound P-0057, {3-Methoxy-5-[4-(4-trifluoromethoxy-phenoxy)-benzenesulfonyl]-phenyl}-acetic acid]
CCOc1cc(CC(=O)O)cc(S(=O)(=O)c2cccc(-c3ccc(Cl)cc3)c2)c1 [Compound P-0094, [3-(4′-chloro-biphenyl-3-sulfonyl)-5-ethoxy-phenyl]-acetic acid]
CCOc1cc(CC(=O)O)cc(S(=O)(=O)c2cccc(-c3ccc(OC)nc3)c2)c1 [Compound P-0139, {3-Ethoxy-5-[3-(6-methoxy-pyridin-3-yl)-benzenesulfonyl]-phenyl}-acetic acid]
CCCOc1cc(CC(=O)O)cc(S(=O)(=O)c2ccc(Oc3ccc(OC(C)(C)C)cc3)cc2)c1 [Compound P-0276, {3-[4-(4-tert-Butoxy-phenoxy)-benzenesulfonyl]-5-propoxy-phenyl}-acetic acid]
CCCOc1cc(CC(=O)O)cc(S(=O)(=O)c2cc(-c3ccc(OC(F)(F)F)cc3)c(C)s2)c1 [Compound P-0121, {3-[5-Methyl-4-(4-trifluoromethoxy-phenyl)-thiophene-2-sulfonyl]-5-propoxy-phenyl}-acetic acid]
CCCOc1cc(CC(=O)O)cc(S(=O)(=O)c2cccc(-c3ccc(OC)c(F)c3)c2)c1 [Compound P-0113, [3-(3′-Fluoro-4′-methoxy-biphenyl-3-sulfonyl)-5-propoxy-phenyl]-acetic acid]
CCOc1cc(CC(=O)O)cc(Oc2cccc(-c3ccccc3OC)c2)c1 [Compound P-0098, [3-Ethoxy-5-(2′-methoxy-biphenyl-3-yloxy)-phenyl]-acetic acid]
CCCCOc1cc(CC(=O)O)cc(S(=O)(=O)c2cccc(OC)c2)c1 [Compound P-0025, [3-butoxy-5-(3-methoxy-benzenesulfonyl)-phenyl]-acetic acid]
CCOc1ccc(-c2cccc(S(=O)(=O)c3cc(CC(=O)O)cc(OCCOC)c3)c2)cc1 [Compound P-0198, [3-(4′-Ethoxy-biphenyl-3-sulfonyl)-5-(2-methoxy-ethoxy)-phenyl]-acetic acid]
CCCOc1cc(CC(=O)O)cc(Oc2cccc(-c3cnn(CCC(C)C)c3)c2)c1 [Compound P-0186, (3-{3-[1-(3-Methyl-butyl)-1H-pyrazol-4-yl]-phenoxy}-5-propoxy-phenyl)-acetic acid]
COc1cc(CC(=O)O)cc(S(=O)(=O)c2cccc(-c3ccc(C(F)(F)F)cc3)c2)c1 [Compound P-0175, [3-Methoxy-5-(4′-trifluoromethyl-biphenyl-3-sulfonyl)-phenyl]-acetic acid]
COCCOc1cc(CC(=O)O)cc(S(=O)(=O)c2ccc(Oc3ccc(OC(C)(C)C)cc3)cc2)c1 [Compound P-0273, [3-[4-(4-tert-Butoxy-phenoxy)-benzenesulfonyl]-5-(2-methoxy-ethoxy)-phenyl]-acetic acid]
COCCOc1cc(CC(=O)O)cc(Oc2cccc(-c3ccc(Cl)cc3)c2)c1 [Compound P-0218, [3-(4′-Chloro-biphenyl-3-yloxy)-5-(2-methoxy-ethoxy)-phenyl]-acetic acid]
COc1cc(CC(=O)O)cc(S(=O)(=O)c2ccc(Oc3ccc(C(F)(F)F)cc3)cc2)c1 [Compound P-0060, {3-Methoxy-5-[4-(4-trifluoromethyl-phenoxy)-benzenesulfonyl]-phenyl}-acetic acid]
COCCOc1cc(CC(=O)O)cc(S(=O)(=O)c2cccc(-c3ccc(OC)cc3)c2)c1 [Compound P-0196, [3-(4′-Methoxy-biphenyl-3-sulfonyl)-5-(2-methoxy-ethoxy)-phenyl]-acetic acid]
COCCOc1cc(CC(=O)O)cc(S(=O)(=O)c2cccc(-c3ccc(F)c(Cl)c3)c2)c1 [Compound P-0197, [3-(3′-Chloro-4′-fluoro-biphenyl-3-sulfonyl)-5-(2-methoxy-ethoxy)-phenyl]-acetic acid]
CCOc1cc(CC(=O)O)cc(OCc2sc(-c3ccc(C(F)(F)F)cc3)nc2C)c1 [Compound P-0019, {3-Ethoxy-5-[4-methyl-2-(4-trifluoromethyl-phenyl)-thiazol-5-ylmethoxy]-phenyl}-aceticacid]
CCOc1cc(CC(=O)O)cc(Oc2cccc(-c3ccc(C(F)(F)F)cc3)c2)c1 [Compound P-0082, [3-ethoxy-5-(4′-trifluoromethyl-biphenyl-3-yloxy)-phenyl]-acetic acid]
O=C(O)Cc1cccc(S(=O)(=O)c2ccc(Oc3ccc(OC(F)(F)F)cc3)cc2)c1 [Compound P-0293, {3-[4-(4-Trifluoromethoxy-phenoxy)-benzenesulfonyl]-phenyl}-acetic acid]
CCCOc1cc(CC(=O)O)cc(S(=O)(=O)c2cccc(-c3ccc(OC(F)(F)F)cc3)c2)c1 [Compound P-0110, [3-Propoxy-5-(4′-trifluoromethoxy-biphenyl-3-sulfonyl)-phenyl]-acetic acid]
CCOc1cc(CC(=O)O)cc(Oc2cccc(-c3ccc(F)c(Cl)c3)c2)c1 [Compound P-0100, [3-(3′-Chloro-4′-fluoro-biphenyl-3-yloxy)-5-ethoxy-phenyl]-acetic acid]
CCCOc1ccc(Oc2ccc(S(=O)(=O)c3cc(CC(=O)O)cc(OCCC)c3)cc2)cc1 [Compound P-0272, {3-Propoxy-5-[4-(4-propoxy-phenoxy)-benzenesulfonyl]-phenyl}-acetic acid]
CCOc1cc(CC(=O)O)cc(S(=O)(=O)c2cccc(-c3ccc(OC(F)(F)F)cc3)c2)c1 [Compound P-0138, [3-Ethoxy-5-(4′-trifluoromethoxy-biphenyl-3-sulfonyl)-phenyl]-acetic acid]
CCCOc1cc(CC(=O)O)cc(S(=O)(=O)c2cccc(-c3cnn(CCC(C)C)c3)c2)c1 [Compound P-0191, (3-{3-[1-(3-Methyl-butyl)-1H-pyrazol-4-yl]-benzenesulfonyl}-5-propoxy-phenyl)-acetic acid]
COCCOc1cc(CC(=O)O)cc(S(=O)(=O)c2ccc(Oc3ccc(-n4ccnc4)cc3)cc2)c1 [Compound P-0217, [3-[4-(4-Imidazol-1-yl-phenoxy)-benzenesulfonyl]-5-(2-methoxy-ethoxy)-phenyl]-acetic acid]
CCOc1cc(CC(=O)O)cc(S(=O)(=O)c2cc(-c3ccc(C(F)(F)F)cc3)c(C)s2)c1 [Compound P-0093, {3-ethoxy-5-[5-methyl-4-(4-trifluoromethyl-phenyl)-thiophene-2-sulfonyl]-phenyl}-acetic acid]
CCCOc1cc(CC(=O)O)cc(S(=O)(=O)c2cccc(-c3ccc(Cl)cc3)c2)c1 [Compound P-0105, [3-(4′-Chloro-biphenyl-3-sulfonyl)-5-propoxy-phenyl]-acetic acid]
O=C(O)Cc1cc(OCC2CC2)cc(S(=O)(=O)c2ccc(Oc3ccc(-n4ccnc4)cc3)cc2)c1 [Compound P-0208, {3-Cyclopropylmethoxy-5-[4-(4-imidazol-1-yl-phenoxy)-benzenesulfonyl]-phenyl}-acetic acid]

— US20080249137A1, “PPAR active compounds” (priority 2005, published 2008)
